Measurements from paper PMC5738357.
Results are given in words; binding and its absence hold for the method and conditions named. Binding seen in cells or lysates may run through a third protein. Some entries that bind do so weakly or less than the wild type.

By UniProt entry, the sequences of proteins in these tests, tags left out.
UniProt P42945: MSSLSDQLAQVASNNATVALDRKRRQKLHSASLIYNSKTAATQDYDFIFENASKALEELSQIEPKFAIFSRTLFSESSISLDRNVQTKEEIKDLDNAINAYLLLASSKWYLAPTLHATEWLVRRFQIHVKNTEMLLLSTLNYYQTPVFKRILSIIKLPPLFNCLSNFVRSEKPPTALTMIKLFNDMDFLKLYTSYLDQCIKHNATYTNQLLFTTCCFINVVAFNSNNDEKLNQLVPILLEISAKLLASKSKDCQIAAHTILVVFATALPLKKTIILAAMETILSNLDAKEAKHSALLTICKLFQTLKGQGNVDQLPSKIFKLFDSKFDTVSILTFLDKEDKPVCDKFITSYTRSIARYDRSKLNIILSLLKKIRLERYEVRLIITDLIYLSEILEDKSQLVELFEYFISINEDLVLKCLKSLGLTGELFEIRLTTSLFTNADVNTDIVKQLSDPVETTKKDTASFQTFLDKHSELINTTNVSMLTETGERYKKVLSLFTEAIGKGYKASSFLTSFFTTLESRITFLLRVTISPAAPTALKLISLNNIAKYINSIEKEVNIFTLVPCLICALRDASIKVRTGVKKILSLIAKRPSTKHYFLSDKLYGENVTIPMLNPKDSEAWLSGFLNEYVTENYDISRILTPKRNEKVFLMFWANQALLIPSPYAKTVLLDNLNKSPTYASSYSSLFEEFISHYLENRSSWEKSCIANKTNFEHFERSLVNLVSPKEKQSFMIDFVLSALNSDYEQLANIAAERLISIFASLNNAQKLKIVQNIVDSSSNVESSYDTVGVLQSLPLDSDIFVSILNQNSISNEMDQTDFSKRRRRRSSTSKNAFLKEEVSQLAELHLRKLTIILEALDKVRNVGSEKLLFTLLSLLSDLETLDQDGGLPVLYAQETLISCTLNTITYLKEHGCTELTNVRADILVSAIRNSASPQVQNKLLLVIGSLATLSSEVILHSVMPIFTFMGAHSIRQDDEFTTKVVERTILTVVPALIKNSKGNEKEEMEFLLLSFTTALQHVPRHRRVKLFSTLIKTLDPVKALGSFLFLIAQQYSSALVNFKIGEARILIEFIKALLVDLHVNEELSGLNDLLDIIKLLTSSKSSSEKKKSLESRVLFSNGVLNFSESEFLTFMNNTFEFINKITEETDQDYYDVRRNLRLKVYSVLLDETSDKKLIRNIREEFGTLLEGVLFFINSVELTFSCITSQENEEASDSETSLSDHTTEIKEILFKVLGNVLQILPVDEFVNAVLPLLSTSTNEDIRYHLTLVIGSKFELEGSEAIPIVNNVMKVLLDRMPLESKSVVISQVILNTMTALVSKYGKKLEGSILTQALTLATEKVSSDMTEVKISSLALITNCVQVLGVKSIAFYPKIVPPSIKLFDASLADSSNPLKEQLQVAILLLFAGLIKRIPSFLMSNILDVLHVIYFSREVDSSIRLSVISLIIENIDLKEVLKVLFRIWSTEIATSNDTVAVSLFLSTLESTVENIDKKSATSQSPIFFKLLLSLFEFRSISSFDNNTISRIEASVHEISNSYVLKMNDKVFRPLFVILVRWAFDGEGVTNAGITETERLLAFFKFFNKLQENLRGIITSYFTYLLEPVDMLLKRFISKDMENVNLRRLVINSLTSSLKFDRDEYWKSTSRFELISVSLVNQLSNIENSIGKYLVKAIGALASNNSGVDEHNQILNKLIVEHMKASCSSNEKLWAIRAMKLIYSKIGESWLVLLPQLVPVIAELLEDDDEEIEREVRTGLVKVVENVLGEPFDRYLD
UniProt Q05022: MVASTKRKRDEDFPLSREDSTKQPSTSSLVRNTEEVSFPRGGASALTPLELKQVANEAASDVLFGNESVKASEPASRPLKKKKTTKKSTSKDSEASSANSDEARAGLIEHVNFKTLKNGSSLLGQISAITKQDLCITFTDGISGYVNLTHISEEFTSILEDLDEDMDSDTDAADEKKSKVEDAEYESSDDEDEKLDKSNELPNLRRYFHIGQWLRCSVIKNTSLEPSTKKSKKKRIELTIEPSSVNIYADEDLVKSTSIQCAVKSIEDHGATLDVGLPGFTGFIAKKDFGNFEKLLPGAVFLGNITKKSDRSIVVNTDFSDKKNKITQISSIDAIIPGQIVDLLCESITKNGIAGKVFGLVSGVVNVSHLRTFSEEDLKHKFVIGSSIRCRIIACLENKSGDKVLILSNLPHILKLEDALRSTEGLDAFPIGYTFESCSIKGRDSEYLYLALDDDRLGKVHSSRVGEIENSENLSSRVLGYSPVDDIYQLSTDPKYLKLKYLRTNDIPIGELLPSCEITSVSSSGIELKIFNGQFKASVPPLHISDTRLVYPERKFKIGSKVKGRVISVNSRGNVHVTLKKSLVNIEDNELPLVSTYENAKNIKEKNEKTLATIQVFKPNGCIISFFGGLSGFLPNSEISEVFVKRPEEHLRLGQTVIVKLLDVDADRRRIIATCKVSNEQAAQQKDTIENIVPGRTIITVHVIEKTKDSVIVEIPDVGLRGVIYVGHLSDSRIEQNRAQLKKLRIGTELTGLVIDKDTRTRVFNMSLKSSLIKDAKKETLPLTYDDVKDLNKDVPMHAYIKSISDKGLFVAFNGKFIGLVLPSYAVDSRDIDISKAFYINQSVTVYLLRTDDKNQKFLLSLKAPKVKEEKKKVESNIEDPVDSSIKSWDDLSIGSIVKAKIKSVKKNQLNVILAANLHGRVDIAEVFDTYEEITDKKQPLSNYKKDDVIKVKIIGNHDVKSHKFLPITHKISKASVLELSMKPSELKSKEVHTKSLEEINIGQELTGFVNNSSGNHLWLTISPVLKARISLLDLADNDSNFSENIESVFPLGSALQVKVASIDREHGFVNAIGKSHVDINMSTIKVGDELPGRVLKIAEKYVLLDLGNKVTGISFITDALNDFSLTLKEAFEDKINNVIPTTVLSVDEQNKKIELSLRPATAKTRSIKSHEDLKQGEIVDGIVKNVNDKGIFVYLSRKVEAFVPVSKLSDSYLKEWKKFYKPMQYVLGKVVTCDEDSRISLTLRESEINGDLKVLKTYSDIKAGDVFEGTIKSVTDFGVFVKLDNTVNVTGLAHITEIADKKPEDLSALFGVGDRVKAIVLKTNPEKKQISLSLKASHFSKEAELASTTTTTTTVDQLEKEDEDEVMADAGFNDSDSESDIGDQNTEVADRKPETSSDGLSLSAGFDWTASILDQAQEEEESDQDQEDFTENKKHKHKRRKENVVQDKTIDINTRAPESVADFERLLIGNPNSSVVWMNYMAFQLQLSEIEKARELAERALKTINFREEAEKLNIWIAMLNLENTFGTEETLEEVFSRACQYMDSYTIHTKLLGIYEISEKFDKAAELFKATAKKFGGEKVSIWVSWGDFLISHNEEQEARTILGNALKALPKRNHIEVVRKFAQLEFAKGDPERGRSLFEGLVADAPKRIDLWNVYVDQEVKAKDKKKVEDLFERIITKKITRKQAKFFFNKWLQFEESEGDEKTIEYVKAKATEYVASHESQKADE

What was measured:
[1] = target: T1, scEnp1-FTpA (S. cerevisiae) (UniProt P38333); test: co-sedimentation; Enp1-FTpA tandem affinity-purified from Dim2-expressing or Dim2-depleted cells, eluate separated by sucrose gradient centrifugation (Supplementary Fig. 2b)
T1 sequence: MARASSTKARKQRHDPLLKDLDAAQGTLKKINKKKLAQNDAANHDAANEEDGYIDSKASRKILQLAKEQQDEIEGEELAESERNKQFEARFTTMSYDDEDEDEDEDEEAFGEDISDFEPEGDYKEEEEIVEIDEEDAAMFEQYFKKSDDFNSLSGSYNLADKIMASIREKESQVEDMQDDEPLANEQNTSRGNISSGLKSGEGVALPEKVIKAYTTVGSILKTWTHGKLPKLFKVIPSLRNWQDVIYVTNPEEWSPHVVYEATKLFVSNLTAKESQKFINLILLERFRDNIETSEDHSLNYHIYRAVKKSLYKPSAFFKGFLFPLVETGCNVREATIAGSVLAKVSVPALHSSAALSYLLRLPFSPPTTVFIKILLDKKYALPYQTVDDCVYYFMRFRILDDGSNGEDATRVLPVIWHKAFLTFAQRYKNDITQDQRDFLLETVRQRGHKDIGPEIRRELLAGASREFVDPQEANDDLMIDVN

[2] = target: scUtp10-FTpA (S. cerevisiae) (UniProt P42945); test: co-IP; tandem affinity-purification of FTpA-tagged yeast baits (IgG Sepharose, TEV, Flag agarose); western blotting of the Flag eluates; cells with or without depletion of Dim2 or Krr1 where told
[3] = target: T2, Ltv1 bait (yeast (S. cerevisiae)) (UniProt P34078); test: co-IP; late pre-40S particles affinity-purified via the Ltv1 bait from yeast expressing Nob1 or Nob1ΔMID (Supplementary Fig. 3d; detection not shown)
T2 sequence: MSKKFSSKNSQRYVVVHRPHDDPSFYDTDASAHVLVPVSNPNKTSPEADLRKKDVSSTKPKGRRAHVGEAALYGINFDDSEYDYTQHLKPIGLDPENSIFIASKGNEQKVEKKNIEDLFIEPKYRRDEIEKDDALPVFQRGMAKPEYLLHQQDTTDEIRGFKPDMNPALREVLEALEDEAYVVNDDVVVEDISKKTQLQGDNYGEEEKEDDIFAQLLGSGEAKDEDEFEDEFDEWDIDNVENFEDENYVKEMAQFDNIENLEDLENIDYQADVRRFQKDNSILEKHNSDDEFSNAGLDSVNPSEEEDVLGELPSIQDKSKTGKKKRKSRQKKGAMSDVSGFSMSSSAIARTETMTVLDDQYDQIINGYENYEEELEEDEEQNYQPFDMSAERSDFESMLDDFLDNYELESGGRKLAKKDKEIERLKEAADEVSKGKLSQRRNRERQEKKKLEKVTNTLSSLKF

How did the binding [1] turn out when Rrp5 (from UniProt Q05022 1-1729) was run?
The binding was “binds”.

Which binding [1] does the source give for “Utp10 (endogenous, yeast) (from UniProt P42945 1-1769)” here?
The binding was “binds”.

B1: Tsr1 (protein, UniProt Q07381 1-788)
chain: MAGHSHRSSLKNGHKSYKSKHASKGALKRLYKGKVEKEPVGTGKPDKQVSKLQRKNKAKQLRAQRILDSIENRKLFEGKNGAAKIITIVPLVNDLDPLDILYKLLKCADDEGIMVQEVDSKRIFNVHIKKFKSNLKIIIPDMTNFLNILDCAKVADFVVFGLSGVQEVDEEFGEQIIRALELQGIASYIGVISNLSAVHEKEKFQLDVKQSLESYFKHFFPSEERVYNLEKNSDALNVLRTLCQRLPRSINWRDNRGYVVADFVDFVETSPDSGDLVIEGTVRGIGFNANRLVHIPDFGDFQLNKIEKISESSQKRKIIKEKATDSLSLELDLQTVFESNMNRDTLDEYAPEGTEDWSDYDEDFEYDGLTTARYDDHGFLPGREQTSKKAAVPKGTSDYQAKWYLDDVIDANEEEEAEQTNGKDETMMEIDDEMMVEQDNEEVAGDEEYDIEDNEGFEELSPEEEERQLREFRDMEKEDREFPDEIELEPSESAIERLKRYRGLKNLYNCDWQVDEKDPSSPAEWKRLLRIGNYKNTKNRIIKETKNEAQAIAGDRIRMFIRFPKFLLEKIQDPKQLLFAVYGLLLHEHKNAVVNFSLQRWEQYDKPVPSQEPIVVQYGVRRYTIQPLFSQGSNSPNNVHKYERFLHPDTVSVATCIAPVDFTQSPAIFFKPSPTDAKNIELIGHGTFLNADHSRILAKRAILTGHPFRFHKTVVTVRYMFFRPEDVEWFKSIPLFTKSGRSGFIKESLGTHGYFKATFDGKLSAQDVVAMSLYKRMWPMPSLPWNGM
How did the binding [1] turn out when B1 was run?
Its binding is “binds”.

B2: Rrp12 (protein, UniProt Q12754 1-1228)
chain: MDQDKVAFLLELEDKLAKIRSQVNSKLENQKHIAIILTAVEENIAGQATNDVSKNIVNYIISFMSLLDQAVDPSTHEIKDIQLASSSTYLLDLIFHYSPKVLLRSKFSEILTKIAPCITAEKANAPLIRAAIGCLESLLIAQDAQAWNNTYDLNVTPKRGLQGILELSLDVRPKVRKRALDAVHAVLLNPPVAPTAEHVAAVFVADFCDKQLAGILNDLSNLSNKQLKAQKTKEDINASVMRSLRLITSVVSTGQWPSSQIEPLCDVLLGVTKSSEQYLVSASFECFESMFKTMAETTISSGLAENKYLRVLDTIFALKPSNVDTLLTKSWIAVVIKGMSTYATHQPLKALRKIPGVFHIMCTYLASETPEVYQAASQCLISILSESVKDDLLLYTPSVDEKVFKNVDEIISQIAKTFIDFLSIRYSHCSREILKILVAAFNKFRYRSNPHFLKSLKIVDTWRVNEEQFMDLRNEIELVIGASISAMGPEMILAEAPLNLDNPSSERPGRAWLLPLIRDYTKNANLATFQNELAPYIKSFQSKFDKVPEESIQLRVFQTIVDQIWSTLPRFCELPMDLRESFTDEFASELSSLLYSEVELRTTICHALKVLAESNVSYAEESSSHNVLLLQRFPISEAQKNIEYLSTKSTNLLAVLFNVYTQTTPNARSYILETIDQYLKITSKEDLEKTFNNVCGLLKNSMNEESSGNVNKEKKKPQLTATLLDLIICMITYLPVSSYSALFSMFSLTVNSADALIQKRAYRIITKLSELKSGSTAVAQFISDIENVMVDSASSVQTSAKAARLTAIKTIVELLPLDHLDFIVRTVAEVILSTKDVNEKSRETAFDTLICMGRKMNEPNGIIKLFQIPGYDPTTPDQSSSISEFFKIISAGLIGESQHMVSSSITGYACLVFEFKNELDSGILMDIYDTIELYLTSNSREIVKSAIGFTKVCVLGLPEELMRPKVPELLLKLLRWSHEHTGHFKAKVKHIIERLIRRFGYDYIEANFPEEDRRLLTNIRKMRNRNKRKDEEVTTGVSDVAATKGSRFMSAFDEAVYGSDEENDNGSDQEENVAGGKMKNGAKQFIVESGDNPLDLLDSQTLAHISSTRPKKFNKNQNRARFNDDAFNFDSEGKLVVKGQPKPSTNVDDPLSAVTSGINAYLEAVKSGPVRGQRNKLKFRKNGKDSDEFGDDDDGEKDSRLMRGRVNQGNKIGKHNKKGPKFKSRKKL
For B2, which binding [1] is on record?
The binding was “binds”.

B3: Dis3 (protein, UniProt Q08162 1-1001)
chain: MSVPAIAPRRKRLADGLSVTQKVFVRSRNGGATKIVREHYLRSDIPCLSRSCTKCPQIVVPDAQNELPKFILSDSPLELSAPIGKHYVVLDTNVVLQAIDLLENPNCFFDVIVPQIVLDEVRNKSYPVYTRLRTLCRDSDDHKRFIVFHNEFSEHTFVERLPNETINDRNDRAIRKTCQWYSEHLKPYDINVVLVTNDRLNREAATKEVESNIITKSLVQYIELLPNADDIRDSIPQMDSFDKDLERDTFSDFTFPEYYSTARVMGGLKNGVLYQGNIQISEYNFLEGSVSLPRFSKPVLIVGQKNLNRAFNGDQVIVELLPQSEWKAPSSIVLDSEHFDVNDNPDIEAGDDDDNNESSSNTTVISDKQRRLLAKDAMIAQRSKKIQPTAKVVYIQRRSWRQYVGQLAPSSVDPQSSSTQNVFVILMDKCLPKVRIRTRRAAELLDKRIVISIDSWPTTHKYPLGHFVRDLGTIESAQAETEALLLEHDVEYRPFSKKVLECLPAEGHDWKAPTKLDDPEAVSKDPLLTKRKDLRDKLICSIDPPGCVDIDDALHAKKLPNGNWEVGVHIADVTHFVKPGTALDAEGAARGTSVYLVDKRIDMLPMLLGTDLCSLKPYVDRFAFSVIWELDDSANIVNVNFMKSVIRSREAFSYEQAQLRIDDKTQNDELTMGMRALLKLSVKLKQKRLEAGALNLASPEVKVHMDSETSDPNEVEIKKLLATNSLVEEFMLLANISVARKIYDAFPQTAMLRRHAAPPSTNFEILNEMLNTRKNMSISLESSKALADSLDRCVDPEDPYFNTLVRIMSTRCMMAAQYFYSGAYSYPDFRHYGLAVDIYTHFTSPIRRYCDVVAHRQLAGAIGYEPLSLTHRDKNKMDMICRNINRKHRNAQFAGRASIEYYVGQVMRNNESTETGYVIKVFNNGIVVLVPKFGVEGLIRLDNLTEDPNSAAFDEVEYKLTFVPTNSDKPRDVYVFDKVEVQVRSVMDPITSKRKAELLLK
Which binding [1] does the source give for B3 here?
The binding was “binds”.

B4: Rps5 (protein, UniProt P26783 1-225)
chain: MSDTEAPVEVQEDFEVVEEFTPVVLATPIPEEVQQAQTEIKLFNKWSFEEVEVKDASLVDYVQVRQPIFVAHTAGRYANKRFRKAQCPIIERLTNSLMMNGRNNGKKLKAVRIIKHTLDIINVLTDQNPIQVVVDAITNTGPREDTTRVGGGGAARRQAVDVSPLRRVNQAIALLTIGAREAAFRNIKTIAETLAEELINAAKGSSTSYAIKKKDELERVAKSNR
For B4, which binding [2] is on record?
The binding was “binds”.

B5: Rps8 (protein, UniProt P0CX39 1-200)
chain: MGISRDSRHKRSATGAKRAQFRKKRKFELGRQPANTKIGAKRIHSVRTRGGNKKYRALRIETGNFSWASEGISKKTRIAGVVYHPSNNELVRTNTLTKAAIVQIDATPFRQWFEAHYGQTLGKKKNVKEEETVAKSKNAERKWAARAASAKIESSVESQFSAGRLYACISSRPGQSGRCDGYILEGEELAFYLRRLTAKK
For B5, which binding [2] is on record?
The binding was “binds”.

B6: Nob1 (wild-type reference of Supplementary Fig. 3d) (protein, UniProt Q08444 1-459)
chain: MTENQTAHVRALILDATPLITQSYTHYQNYAQSFYTTPTVFQEIKDAQARKNLEIWQSLGTLKLVHPSENSIAKVSTFAKLTGDYSVLSANDLHILALTYELEIKLNNGDWRLRKKPGDALDASKADVGTDGKQKLTEDNKKEEDSESVPKKKNKRRGGKKQKAKREAREAREAENANLELESKAEEHVEEAGSKEQICNDENIKESSDLNEVFEDADDDGDWITPENLTEAIIKDSGEDTTGSLGVEASEEDRHVALNRPENQVALATGDFAVQNVALQMNLNLMNFMSGLKIKRIRNYMLRCHACFKIFPLPKDGKPKHFCASCGGQGTLLRCAVSVDSRTGNVTPHLKSNFQWNNRGNRYSVASPLSKNSQKRYGKKGHVHSKPQENVILREDQKEYEKVIKQEEWTRRHNEKILNNWIGGGSADNYISPFAITGLKQHNVRIGKGRYVNSSKRRS
Which binding [3] does the source give for B6 here?
The binding was “binds”.
